{"source": "PubChem BioAssay AID1159618 (Peter MacCallum Cancer Centre, 2016)", "purpose": "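Contrast migration regulators of blood versus lymphatic endothelial cells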 (follow-up of hits)", "cells": "human HMBEC blood microvascular and HDLEC dermal lymphatic endothelial cells", "knock-down reagent": "siRNA pool against human genes, 40 nM", "measurement": "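Scratch wounds imaged automatically; migrated area scaled to mock-transfected mean and averaged across two replicates, with per-well nuclei counts recorded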", "direction": "migration vs mock, HMBEC and migration vs mock, HDLEC: higher = more migration into the scratch", "call rule": "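a knock-down counts as active if migrated area in either cell type is under 0.65 of the mock level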", "meaning of the calls": "active = migration impaired; inactive = no change", "note": "In all, the deposit lists 153 reagents; shown is an unselected part. Of all reagents, 111 (73%) were called active. 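Migration not corrected for cell number; some knock-downs also lowered nuclei counts, so reduced closure may partly reflect fewer cells.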 Entries without a mark were called inactive. Not all columns of the deposit are shown. Not given: the time to read-out."}
{"gene knocked down": "APBA3 (amyloid beta precursor protein binding family A member 3)", "cell type with impaired migration": "no change in either cell type", "migration vs mock, HMBEC": 0.839, "migration vs mock, HDLEC": 0.752}
{"gene knocked down": "EPOR (erythropoietin receptor)", "cell type with impaired migration": "impaired in both blood and lymphatic cells (active)", "migration vs mock, HMBEC": 0.548, "migration vs mock, HDLEC": 0.592}
{"gene knocked down": "IL1B (interleukin 1 beta)", "cell type with impaired migration": "impaired in both blood and lymphatic cells (active)", "migration vs mock, HMBEC": 0.475, "migration vs mock, HDLEC": 0.554}
{"gene knocked down": "PI4KB (phosphatidylinositol 4-kinase beta)", "cell type with impaired migration": "impaired in both blood and lymphatic cells (active)", "migration vs mock, HMBEC": 0.553, "migration vs mock, HDLEC": 0.405}
{"gene knocked down": "TNFRSF1B (TNF receptor superfamily member 1B)", "cell type with impaired migration": "impaired in both blood and lymphatic cells (active)", "migration vs mock, HMBEC": 0.253, "migration vs mock, HDLEC": 0.253}
{"gene knocked down": "CATSPERT (catsper channel auxiliary subunit tau)", "cell type with impaired migration": "no change in either cell type", "migration vs mock, HMBEC": 0.729, "migration vs mock, HDLEC": 0.705}
{"gene knocked down": "PRKG2 (protein kinase cGMP-dependent 2)", "cell type with impaired migration": "no change in either cell type", "migration vs mock, HMBEC": 0.701, "migration vs mock, HDLEC": 0.783}
{"gene knocked down": "ACP2 (acid phosphatase 2, lysosomal)", "cell type with impaired migration": "impaired in both blood and lymphatic cells (active)", "migration vs mock, HMBEC": 0.394, "migration vs mock, HDLEC": 0.542}
{"gene knocked down": "KRT80 (keratin 80)", "cell type with impaired migration": "impaired only in lymphatic endothelial cells (active)", "migration vs mock, HMBEC": 0.702, "migration vs mock, HDLEC": 0.584}
{"gene knocked down": "GPR84 (G protein-coupled receptor 84)", "cell type with impaired migration": "impaired in both blood and lymphatic cells (active)", "migration vs mock, HMBEC": 0.0388, "migration vs mock, HDLEC": 0.0314}
{"gene knocked down": "S1PR1 (sphingosine-1-phosphate receptor 1)", "cell type with impaired migration": "impaired in both blood and lymphatic cells (active)", "migration vs mock, HMBEC": 0.367, "migration vs mock, HDLEC": 0.497}
{"gene knocked down": "FLG2 (filaggrin 2)", "cell type with impaired migration": "impaired in both blood and lymphatic cells (active)", "migration vs mock, HMBEC": 0.462, "migration vs mock, HDLEC": 0.536}

Quoted from the listing for reference:
{"gene knocked down": "PRKG2 (protein kinase cGMP-dependent 2)", "cell type with impaired migration": "no change in either cell type", "migration vs mock, HMBEC": 0.701, "migration vs mock, HDLEC": 0.783}
{"gene knocked down": "ACP2 (acid phosphatase 2, lysosomal)", "cell type with impaired migration": "impaired in both blood and lymphatic cells (active)", "migration vs mock, HMBEC": 0.394, "migration vs mock, HDLEC": 0.542}
